Test results as given in the supplement of paper PMC10849652.
Some of the results follow.

By UniProt entry, the sequences of proteins in these tests, tags left out. Where a name states a change or a piece, a line headed by the entry shows the natural chain unless it says otherwise.
UniProt Q9NUE0: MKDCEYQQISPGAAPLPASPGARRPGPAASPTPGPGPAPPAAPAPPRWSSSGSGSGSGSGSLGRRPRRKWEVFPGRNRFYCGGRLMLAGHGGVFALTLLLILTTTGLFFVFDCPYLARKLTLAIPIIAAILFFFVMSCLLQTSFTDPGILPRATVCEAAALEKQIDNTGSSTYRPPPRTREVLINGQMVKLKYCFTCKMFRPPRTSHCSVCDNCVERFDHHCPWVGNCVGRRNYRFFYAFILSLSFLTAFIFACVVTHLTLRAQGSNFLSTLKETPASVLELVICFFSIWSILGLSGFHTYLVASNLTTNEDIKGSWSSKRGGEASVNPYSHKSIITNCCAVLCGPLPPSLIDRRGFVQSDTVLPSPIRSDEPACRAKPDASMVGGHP
UniProt Q96TA2: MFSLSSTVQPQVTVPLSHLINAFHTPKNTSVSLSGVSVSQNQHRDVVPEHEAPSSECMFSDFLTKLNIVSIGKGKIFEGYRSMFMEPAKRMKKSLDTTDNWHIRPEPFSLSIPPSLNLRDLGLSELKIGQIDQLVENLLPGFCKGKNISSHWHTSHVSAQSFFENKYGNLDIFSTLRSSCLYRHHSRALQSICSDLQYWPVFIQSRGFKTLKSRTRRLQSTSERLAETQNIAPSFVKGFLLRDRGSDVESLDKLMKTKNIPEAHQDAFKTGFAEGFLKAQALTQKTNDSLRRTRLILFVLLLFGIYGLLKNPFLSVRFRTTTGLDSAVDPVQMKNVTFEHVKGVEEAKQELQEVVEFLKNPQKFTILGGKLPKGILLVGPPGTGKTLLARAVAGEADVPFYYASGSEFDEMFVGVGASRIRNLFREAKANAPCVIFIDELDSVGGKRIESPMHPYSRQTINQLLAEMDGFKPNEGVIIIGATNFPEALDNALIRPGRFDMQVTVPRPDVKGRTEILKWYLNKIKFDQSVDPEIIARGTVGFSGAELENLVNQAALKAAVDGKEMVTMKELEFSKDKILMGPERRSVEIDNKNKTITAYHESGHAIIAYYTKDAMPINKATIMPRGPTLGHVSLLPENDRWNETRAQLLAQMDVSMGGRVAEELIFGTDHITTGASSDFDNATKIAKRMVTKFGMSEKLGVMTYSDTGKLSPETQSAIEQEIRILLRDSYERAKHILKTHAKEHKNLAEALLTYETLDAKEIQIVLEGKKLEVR
UniProt O95619, whole entry, looked up: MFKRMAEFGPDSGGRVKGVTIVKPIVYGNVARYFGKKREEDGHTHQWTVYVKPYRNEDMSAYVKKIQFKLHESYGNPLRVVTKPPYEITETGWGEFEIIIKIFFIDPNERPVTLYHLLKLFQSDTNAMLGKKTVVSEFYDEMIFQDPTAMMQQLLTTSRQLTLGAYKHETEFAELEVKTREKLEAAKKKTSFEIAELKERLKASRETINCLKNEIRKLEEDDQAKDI
UniProt P31946: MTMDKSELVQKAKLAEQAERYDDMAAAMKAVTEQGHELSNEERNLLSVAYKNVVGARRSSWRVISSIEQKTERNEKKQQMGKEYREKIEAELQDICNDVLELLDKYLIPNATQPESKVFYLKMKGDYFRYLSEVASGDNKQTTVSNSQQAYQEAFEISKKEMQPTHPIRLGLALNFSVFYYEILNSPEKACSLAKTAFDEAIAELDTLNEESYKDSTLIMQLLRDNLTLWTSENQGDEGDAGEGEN
UniProt Q9ULJ3: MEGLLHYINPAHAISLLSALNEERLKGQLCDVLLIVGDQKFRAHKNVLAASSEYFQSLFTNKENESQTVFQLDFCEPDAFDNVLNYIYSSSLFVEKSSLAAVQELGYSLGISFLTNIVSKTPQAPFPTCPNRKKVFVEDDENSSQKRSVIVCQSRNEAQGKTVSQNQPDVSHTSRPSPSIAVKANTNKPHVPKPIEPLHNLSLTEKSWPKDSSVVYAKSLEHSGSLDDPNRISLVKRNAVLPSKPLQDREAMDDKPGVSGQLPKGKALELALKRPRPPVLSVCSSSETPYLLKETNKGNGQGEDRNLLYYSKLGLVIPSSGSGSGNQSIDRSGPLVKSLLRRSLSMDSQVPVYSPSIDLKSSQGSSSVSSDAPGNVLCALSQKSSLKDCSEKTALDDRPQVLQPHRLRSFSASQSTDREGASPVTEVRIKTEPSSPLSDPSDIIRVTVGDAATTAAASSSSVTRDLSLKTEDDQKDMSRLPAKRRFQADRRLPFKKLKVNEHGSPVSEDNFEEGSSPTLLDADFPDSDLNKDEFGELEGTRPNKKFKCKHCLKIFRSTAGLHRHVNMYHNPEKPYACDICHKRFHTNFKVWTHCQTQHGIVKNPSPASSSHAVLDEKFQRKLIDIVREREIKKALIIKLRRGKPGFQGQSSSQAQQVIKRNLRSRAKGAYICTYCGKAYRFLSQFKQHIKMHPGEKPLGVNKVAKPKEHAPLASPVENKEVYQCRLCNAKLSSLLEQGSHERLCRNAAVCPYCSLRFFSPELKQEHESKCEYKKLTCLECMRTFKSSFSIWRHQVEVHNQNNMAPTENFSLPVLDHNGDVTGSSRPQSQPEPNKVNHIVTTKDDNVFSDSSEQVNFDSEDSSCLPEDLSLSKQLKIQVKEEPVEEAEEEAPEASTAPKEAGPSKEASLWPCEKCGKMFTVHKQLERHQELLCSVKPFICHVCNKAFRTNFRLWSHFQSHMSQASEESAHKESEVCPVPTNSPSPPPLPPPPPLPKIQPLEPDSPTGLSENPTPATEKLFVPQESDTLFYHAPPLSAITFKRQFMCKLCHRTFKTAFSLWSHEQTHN
UniProt Q9NP64: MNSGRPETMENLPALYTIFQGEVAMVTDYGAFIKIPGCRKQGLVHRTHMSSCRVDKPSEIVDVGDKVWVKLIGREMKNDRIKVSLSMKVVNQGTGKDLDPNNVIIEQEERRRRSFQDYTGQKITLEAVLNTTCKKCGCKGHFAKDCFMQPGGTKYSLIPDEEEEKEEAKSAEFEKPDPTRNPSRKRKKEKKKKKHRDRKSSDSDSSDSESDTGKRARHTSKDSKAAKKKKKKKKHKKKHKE
UniProt O95365: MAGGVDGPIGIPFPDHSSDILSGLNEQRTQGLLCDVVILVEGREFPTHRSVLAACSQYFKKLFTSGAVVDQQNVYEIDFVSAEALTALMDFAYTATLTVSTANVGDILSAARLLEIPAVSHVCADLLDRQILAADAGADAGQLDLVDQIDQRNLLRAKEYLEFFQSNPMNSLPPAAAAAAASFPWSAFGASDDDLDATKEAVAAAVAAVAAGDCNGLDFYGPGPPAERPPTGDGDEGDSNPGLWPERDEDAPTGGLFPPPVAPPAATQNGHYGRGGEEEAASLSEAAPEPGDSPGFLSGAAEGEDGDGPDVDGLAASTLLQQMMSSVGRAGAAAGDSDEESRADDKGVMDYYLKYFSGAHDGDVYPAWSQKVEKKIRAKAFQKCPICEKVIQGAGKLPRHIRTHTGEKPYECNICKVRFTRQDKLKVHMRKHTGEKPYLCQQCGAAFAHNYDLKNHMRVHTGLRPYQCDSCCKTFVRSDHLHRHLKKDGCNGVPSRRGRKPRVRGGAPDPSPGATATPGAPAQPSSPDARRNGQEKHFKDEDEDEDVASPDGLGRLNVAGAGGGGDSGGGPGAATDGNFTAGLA
UniProt Q9H0D6: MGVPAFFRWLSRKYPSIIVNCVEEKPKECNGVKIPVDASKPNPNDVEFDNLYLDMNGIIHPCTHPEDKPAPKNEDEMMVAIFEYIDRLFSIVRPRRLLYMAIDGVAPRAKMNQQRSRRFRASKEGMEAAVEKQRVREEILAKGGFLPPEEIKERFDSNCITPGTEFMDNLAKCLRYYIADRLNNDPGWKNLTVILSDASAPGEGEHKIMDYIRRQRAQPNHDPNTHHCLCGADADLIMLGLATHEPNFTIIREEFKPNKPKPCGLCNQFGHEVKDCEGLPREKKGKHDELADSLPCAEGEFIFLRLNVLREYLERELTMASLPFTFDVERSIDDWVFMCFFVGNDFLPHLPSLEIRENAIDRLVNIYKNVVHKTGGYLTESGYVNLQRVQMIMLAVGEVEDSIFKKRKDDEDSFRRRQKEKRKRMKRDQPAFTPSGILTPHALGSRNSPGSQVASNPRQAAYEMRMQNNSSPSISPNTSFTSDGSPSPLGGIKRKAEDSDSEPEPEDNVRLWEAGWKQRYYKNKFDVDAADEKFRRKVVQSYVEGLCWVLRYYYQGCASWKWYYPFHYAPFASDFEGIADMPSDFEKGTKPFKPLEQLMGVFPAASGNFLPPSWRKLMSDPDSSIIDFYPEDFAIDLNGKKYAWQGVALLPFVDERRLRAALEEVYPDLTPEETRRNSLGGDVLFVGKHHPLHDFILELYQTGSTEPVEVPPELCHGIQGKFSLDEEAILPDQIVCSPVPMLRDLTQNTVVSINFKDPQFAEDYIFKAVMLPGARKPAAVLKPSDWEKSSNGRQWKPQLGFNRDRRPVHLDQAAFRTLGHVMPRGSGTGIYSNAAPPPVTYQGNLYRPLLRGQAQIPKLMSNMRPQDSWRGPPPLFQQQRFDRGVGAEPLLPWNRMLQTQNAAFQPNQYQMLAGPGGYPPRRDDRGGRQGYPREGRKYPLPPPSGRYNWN
UniProt P13010: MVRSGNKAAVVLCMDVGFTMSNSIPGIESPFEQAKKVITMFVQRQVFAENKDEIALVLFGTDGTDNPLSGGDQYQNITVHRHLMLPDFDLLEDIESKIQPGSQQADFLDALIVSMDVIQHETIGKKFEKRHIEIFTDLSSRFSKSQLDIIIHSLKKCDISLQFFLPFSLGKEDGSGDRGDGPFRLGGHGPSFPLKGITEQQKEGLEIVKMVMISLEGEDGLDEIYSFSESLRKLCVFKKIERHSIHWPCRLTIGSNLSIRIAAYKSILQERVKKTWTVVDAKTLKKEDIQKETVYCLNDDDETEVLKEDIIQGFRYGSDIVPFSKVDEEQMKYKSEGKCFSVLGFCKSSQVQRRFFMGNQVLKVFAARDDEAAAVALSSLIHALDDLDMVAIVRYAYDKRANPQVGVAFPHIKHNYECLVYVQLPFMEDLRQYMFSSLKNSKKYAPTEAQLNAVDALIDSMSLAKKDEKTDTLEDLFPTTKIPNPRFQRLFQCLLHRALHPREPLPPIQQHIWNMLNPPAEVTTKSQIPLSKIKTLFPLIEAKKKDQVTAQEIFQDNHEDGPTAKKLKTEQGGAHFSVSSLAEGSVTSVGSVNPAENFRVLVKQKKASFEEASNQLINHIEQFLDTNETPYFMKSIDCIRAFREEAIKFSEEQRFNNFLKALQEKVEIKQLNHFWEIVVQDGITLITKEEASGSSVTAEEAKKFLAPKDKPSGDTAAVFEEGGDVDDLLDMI
UniProt Q8IX07: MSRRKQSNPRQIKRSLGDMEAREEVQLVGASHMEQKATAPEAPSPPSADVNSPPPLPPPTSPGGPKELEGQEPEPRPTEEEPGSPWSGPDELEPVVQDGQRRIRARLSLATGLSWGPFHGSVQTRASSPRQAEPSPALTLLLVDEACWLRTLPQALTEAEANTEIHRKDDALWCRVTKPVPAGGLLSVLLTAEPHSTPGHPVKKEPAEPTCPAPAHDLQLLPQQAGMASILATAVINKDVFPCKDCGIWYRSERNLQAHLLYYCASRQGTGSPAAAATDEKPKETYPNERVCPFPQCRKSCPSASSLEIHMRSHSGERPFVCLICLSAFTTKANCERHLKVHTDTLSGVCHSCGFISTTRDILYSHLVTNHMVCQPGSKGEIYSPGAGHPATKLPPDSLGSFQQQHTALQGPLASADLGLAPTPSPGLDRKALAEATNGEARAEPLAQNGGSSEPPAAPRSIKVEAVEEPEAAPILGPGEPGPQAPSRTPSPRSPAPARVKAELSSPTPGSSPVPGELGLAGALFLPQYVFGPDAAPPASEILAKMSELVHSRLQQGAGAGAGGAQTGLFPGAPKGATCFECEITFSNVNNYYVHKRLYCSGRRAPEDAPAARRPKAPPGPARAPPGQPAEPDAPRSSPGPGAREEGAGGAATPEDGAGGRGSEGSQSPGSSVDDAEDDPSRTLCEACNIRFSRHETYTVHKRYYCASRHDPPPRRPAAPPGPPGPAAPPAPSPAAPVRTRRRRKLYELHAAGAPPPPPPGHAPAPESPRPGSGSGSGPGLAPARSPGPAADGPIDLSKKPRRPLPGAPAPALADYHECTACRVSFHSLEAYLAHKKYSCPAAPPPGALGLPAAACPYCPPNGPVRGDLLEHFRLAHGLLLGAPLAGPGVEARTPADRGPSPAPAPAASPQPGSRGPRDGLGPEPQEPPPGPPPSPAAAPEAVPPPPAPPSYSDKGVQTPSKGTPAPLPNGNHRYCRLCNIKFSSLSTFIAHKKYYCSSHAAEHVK
UniProt P61981: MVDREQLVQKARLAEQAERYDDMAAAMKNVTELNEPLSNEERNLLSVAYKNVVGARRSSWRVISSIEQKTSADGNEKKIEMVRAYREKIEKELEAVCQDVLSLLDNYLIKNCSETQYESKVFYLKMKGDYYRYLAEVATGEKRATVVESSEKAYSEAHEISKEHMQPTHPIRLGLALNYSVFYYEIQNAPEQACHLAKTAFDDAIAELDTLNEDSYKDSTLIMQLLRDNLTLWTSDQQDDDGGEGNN

What was measured:
Assay in all cases: log2 fold change, soluble protein after heating vs DMSO (PISA); higher = thermal stabilisation; K562 lysate, 10 uM; active = over 0.2 and 3.5 SD of the protein, either way, in both replicates (recomputed)
[1] = compound: C#Cc1cccc(Nc2ncnc3cc(OCCOC)c(OCCOC)cc23)c1 [erlotinib]
How it was run: (§1)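 Following dounce homogenisation of K562 pellets in PBS pH 7.4 with 1 mM MgCl2, crude extract at 1 mg/mL protein was incubated for 30 min with 10 μM compound. Aliquots were then heated for 3 min over 48°C-58°C and pooled, NP-40 was added to 0.5% at 4°C, and soluble protein was recovered as the supernatant at 21,000xg for 90 min. Channel-sum-equalised TMTpro 16plex LC-MS/MS quantified this protein. Each value, from duplicates, is a log-two fold change in thermal stability relative to solvent controls.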

[2] = compound: C/C(=N\NC(=O)C1=CC(=CC=C1)S(=O)(=O)N2CCOCC2)/C3=C(C=CC(=C3)Cl)O
How it was run: as §1

[3] = compound: C1=CC(=CC=C1C2=NC3=C(N2)C=C(C=C3)C(=O)N)OC4=CC=C(C=C4)Cl
How it was run: as §1

[4] = compound: C1=CC2=C(C=CC(=C2)/C=C\3/C(=O)NC(=NCC4=CC=CS4)S3)N=C1
How it was run: as §1

[5] = compound: C1=CC2=NC=CN=C2C=C1/C=C/3\C(=O)NC(=O)S3
How it was run: as §1

[6] = compound: C1=CC=C(C=C1)C2=NC(=C(N2)C3=CC=NC=C3)C4=CC(=C(C=C4)Cl)O
How it was run: as §1

[7] = compound: C1=CC=C2C(=C1)C3=NNC4=CC=CC(=C43)C2=O
How it was run: as §1

[8] = compound: C1CCN(C1)C(=O)NC2=CC=CC(=C2)NC3=NC=C(C(=N3)NCCC4=CN=CN4)Br
How it was run: as §1

[9] = compound: C1CN(CCC1(CC2=CC=C(C=C2)Cl)N)C3=NC=NC4=C3C=CN4
How it was run: as §1

[10] = compound: C1COCCN1CCN2C3=CC=CC=C3N=C2NC(=O)C4=CC(=CC=C4)[N+](=O)[O-] [IRAK-1-4 Inhibitor I]
How it was run: as §1

Measured: log2 fold change

XPO7 (UniProt Q9UIA9)
inactive: [1] 0.024 | [2] 0.017 | [3] 0.012 | [4] 0.001 | [5] 0.011 | [6] -0.015 | [7] -0.021 | [8] -0.016 | [9] 0.034 | [10] 0.014

ZDHHC18 (UniProt Q9NUE0)
inactive: [1] 0.265 | [2] -0.057 | [3] -0.371 | [4] -0.052 | [5] -0.135 | [6] 0.004 | [7] 0.038 | [8] -0.022 | [9] 0.075 | [10] 0.13

YDJC (UniProt A8MPS7)
inactive: [1] -0.083 | [2] 0.036 | [3] -0.011 | [4] -0.012 | [5] -0.01 | [6] 0.029 | [7] -0.065 | [8] -0.034 | [9] 0.029 | [10] -0.023

YME1L1 (UniProt Q96TA2)
inactive: [1] 0.018 | [2] -0.136 | [3] -0.029 | [4] 0.026 | [5] 0.053 | [6] 0 | [7] 0.011 | [8] -0.006 | [9] 0.041 | [10] 0.033

YEATS4 (UniProt O95619)
inactive: [1] -0.017 | [2] -0.018 | [3] -0.018 | [4] 0.045 | [5] -0.079 | [6] -0.013 | [7] -0.027 | [8] 0.007 | [9] 0.034 | [10] 0.002

ZDHHC5 (UniProt Q9C0B5)
inactive: [1] -0.039 | [2] 0.008 | [3] 0.002 | [4] -0.027 | [5] 0.021 | [6] 0.003 | [7] -0.035 | [8] 0.002 | [9] 0.047 | [10] 0.009

ZC3H7A (UniProt Q8IWR0)
inactive: [1] 0.077 | [2] -0.011 | [3] -0.054 | [4] 0.039 | [5] -0.012 | [6] -0.042 | [7] -0.089 | [8] 0.039 | [9] 0.021 | [10] 0.015

YWHAB (UniProt P31946)
inactive: [1] -0.029 | [2] 0.044 | [3] 0.003 | [4] -0.072 | [5] -0.018 | [6] -0.014 | [7] -0.015 | [8] 0.001 | [9] -0.009 | [10] -0.005

ZER1 (UniProt Q7Z7L7)
inactive: [1] 0.086 | [2] 0.016 | [3] -0.009 | [4] -0.037 | [5] -0.039 | [6] 0.02 | [7] -0.047 | [8] -0.025 | [9] 0.092 | [10] -0.059

ZBTB21 (UniProt Q9ULJ3)
inactive: [1] -0.073 | [2] 0.095 | [3] -0.127 | [4] 0.045 | [5] -0.104 | [6] 0.038 | [7] 0.041 | [8] -0.032 | [9] 0.098 | [10] -0.014

ZCCHC17 (UniProt Q9NP64)
inactive: [1] -0.003 | [2] -0.001 | [3] -0.135 | [4] -0.186 | [5] -0.035 | [6] -0.01 | [7] 0.165 | [8] 0.171 | [9] -0.024 | [10] -0.02

ZBTB7A (UniProt O95365)
inactive: [1] 0.003 | [2] 0.102 | [3] -0.044 | [4] -0.093 | [5] 0.056 | [6] 0 | [7] 0.084 | [8] -0.133 | [9] -0.011 | [10] -0.018

ZC3HC1 (UniProt Q86WB0)
inactive: [1] 0.011 | [2] -0.123 | [3] -0.006 | [4] 0.005 | [5] -0.009 | [6] 0.007 | [7] 0.009 | [8] 0.011 | [9] 0.018 | [10] -0.003

XPOT (UniProt O43592)
inactive: [1] 0.017 | [2] -0.013 | [3] -0.041 | [4] -0.003 | [5] 0.032 | [6] -0.011 | [7] -0.021 | [8] -0.004 | [9] 0.025 | [10] 0.016

YARS2 (UniProt Q9Y2Z4)
inactive: [1] 0.071 | [2] 0.015 | [3] 0.009 | [4] 0.057 | [5] 0.006 | [6] -0.062 | [7] -0.072 | [8] 0.029 | [9] -0.003 | [10] 0.019

Seven successive records out of the list so far, for reference:
ZC3H7A (UniProt Q8IWR0)
inactive: [1] 0.077 | [2] -0.011 | [3] -0.054 | [4] 0.039 | [5] -0.012 | [6] -0.042 | [7] -0.089 | [8] 0.039 | [9] 0.021 | [10] 0.015

YWHAB (UniProt P31946)
inactive: [1] -0.029 | [2] 0.044 | [3] 0.003 | [4] -0.072 | [5] -0.018 | [6] -0.014 | [7] -0.015 | [8] 0.001 | [9] -0.009 | [10] -0.005

ZER1 (UniProt Q7Z7L7)
inactive: [1] 0.086 | [2] 0.016 | [3] -0.009 | [4] -0.037 | [5] -0.039 | [6] 0.02 | [7] -0.047 | [8] -0.025 | [9] 0.092 | [10] -0.059

ZBTB21 (UniProt Q9ULJ3)
inactive: [1] -0.073 | [2] 0.095 | [3] -0.127 | [4] 0.045 | [5] -0.104 | [6] 0.038 | [7] 0.041 | [8] -0.032 | [9] 0.098 | [10] -0.014

ZCCHC17 (UniProt Q9NP64)
inactive: [1] -0.003 | [2] -0.001 | [3] -0.135 | [4] -0.186 | [5] -0.035 | [6] -0.01 | [7] 0.165 | [8] 0.171 | [9] -0.024 | [10] -0.02

ZBTB7A (UniProt O95365)
inactive: [1] 0.003 | [2] 0.102 | [3] -0.044 | [4] -0.093 | [5] 0.056 | [6] 0 | [7] 0.084 | [8] -0.133 | [9] -0.011 | [10] -0.018

ZC3HC1 (UniProt Q86WB0)
inactive: [1] 0.011 | [2] -0.123 | [3] -0.006 | [4] 0.005 | [5] -0.009 | [6] 0.007 | [7] 0.009 | [8] 0.011 | [9] 0.018 | [10] -0.003

The list goes on.

YKT6 (UniProt O15498)
inactive: [1] -0.064 | [2] -0.008 | [3] -0.027 | [4] 0.021 | [5] 0.01 | [6] -0.001 | [7] 0.011 | [8] 0.003 | [9] 0.007 | [10] -0.02

ZFYVE16 (UniProt Q7Z3T8)
inactive: [1] 0.022 | [2] -0.022 | [3] 0.022 | [4] -0.003 | [5] -0.012 | [6] 0.004 | [7] -0.035 | [8] -0.022 | [9] 0.02 | [10] -0.003

XPO1 (UniProt O14980)
inactive: [1] 0.021 | [2] 0.025 | [3] -0.015 | [4] 0.017 | [5] 0.026 | [6] -0.031 | [7] -0.045 | [8] -0.005 | [9] 0.033 | [10] 0.016

YIF1B (UniProt Q5BJH7)
inactive: [1] 0.014 | [2] -0.052 | [3] -0.011 | [4] 0.049 | [5] -0.027 | [6] 0.024 | [7] -0.077 | [8] -0.031 | [9] -0.014 | [10] -0.042

XRN2 (UniProt Q9H0D6)
inactive: [1] 0.003 | [2] -0.059 | [3] 0.064 | [4] -0.004 | [5] -0.052 | [6] -0.053 | [7] 0.052 | [8] -0.031 | [9] -0.032 | [10] 0.038

XRCC5 (UniProt P13010)
inactive: [1] 0.018 | [2] -0.009 | [3] -0.034 | [4] 0.004 | [5] 0.017 | [6] 0.013 | [7] -0.025 | [8] -0.002 | [9] 0.006 | [10] -0.01

ZC3H4 (UniProt Q9UPT8)
inactive: [1] -0.027 | [2] -0.006 | [3] 0.035 | [4] -0.014 | [5] -0.051 | [6] -0.003 | [7] -0.01 | [8] -0.039 | [9] 0 | [10] 0.028

YTHDF3 (UniProt Q7Z739)
inactive: [1] -0.009 | [2] -0.003 | [3] -0.035 | [4] -0.029 | [5] 0.089 | [6] -0.183 | [7] 0.003 | [8] -0.04 | [9] 0.036 | [10] 0.12

YIPF6 (UniProt Q96EC8)
inactive: [1] 0.021 | [2] -0.056 | [3] 0.042 | [4] 0.131 | [5] 0.08 | [6] 0.078 | [7] -0.106 | [8] 0.041 | [9] 0.06 | [10] 0.077

ZC3H15 (UniProt Q8WU90)
inactive: [1] -0.014 | [2] -0.022 | [3] 0.02 | [4] 0.02 | [5] -0.028 | [6] -0.004 | [7] 0.021 | [8] 0.016 | [9] 0.034 | [10] 0.005

ZFPM1 (UniProt Q8IX07)
inactive: [1] 0.015 | [2] 0.039 | [3] 0.047 | [4] -0.041 | [5] 0.005 | [6] -0.01 | [7] 0.021 | [8] 0.031 | [9] -0.01 | [10] 0.077

XPO6 (UniProt Q96QU8)
inactive: [1] 0.091 | [2] -0.024 | [3] -0.028 | [4] 0.031 | [5] -0.012 | [6] -0.003 | [7] -0.072 | [8] -0.007 | [9] -0.028 | [10] 0.003

YWHAG (UniProt P61981)
inactive: [1] -0.006 | [2] 0.037 | [3] 0.014 | [4] 0.015 | [5] 0.004 | [6] 0.013 | [7] 0.032 | [8] 0.017 | [9] 0.009 | [10] -0.039

ZDHHC3 isoform 2 (UniProt Q9NYG2)
inactive: [1] 0.009 | [2] 0.082 | [3] -0.212 | [4] 0.018 | [5] 0.017 | [6] -0.035 | [7] -0.069 | [8] -0.013 | [9] 0.004 | [10] 0.079

ZFYVE19 (UniProt Q96K21)
inactive: [1] -0.017 | [2] -0.056 | [3] 0.016 | [4] -0.024 | [5] -0.026 | [6] 0.055 | [7] 0.007 | [8] -0.031 | [9] 0.012 | [10] -0.027
